# For at least one compound, name, drawing or mass did not settle the structure.
# What was measured:
# P. berghei ANKA strain [1] = experiment: treatment: 3x10 mg/kg p.o. divided dose vs 1x30 mg/kg po single dose in infected mice; assay type: in vivo, Plasmodium berghei; details: 3 × 10 mg/kg; survival to day 30 post-infection = cure; cured/treated mice
# Protocol: Moro NMRI male mice (Fü Albino specific pathogen free) weighing 18±2 g were infected intravenously (i.v.) with 2×10^7 P. berghei ANKA strain-infected erythrocytes from donor mice on day 0 of the experiment. From donor mice with circa 30% parasitemia, heparinized blood was taken and diluted in physiological saline to 10^8 parasitized erythrocytes per ml. An aliquot (0.2 ml) of this suspension was injected i.v. into experimental and control groups of mice. […] Throughout the experiments, mice were kept in groups of three or five animals in Makrolon type II cages in an air-conditioned animal room at 22 to 23° C.
# They were administered per os (p.o.) in a total volume of 0.01 ml per gram of mouse. The activity of the compound was determined by a variety of methods outlined in subsequent sections. Survival time was also recorded, and survival to day 30 post-infection was considered to be a cure.
# The first experiment conducted consisted of administration of a divided 3×10 mg/kg p.o. dose administered on days 1, 2, and 3 post-infection vs. a single 1×30 mg/kg po dose administered on day 1 post-infection. On day 4 post-infection, blood smears of all animals were prepared and stained with Giemsa. […] Compounds were administered orally in the SSV vehicle.
# P. berghei ANKA strain [2] = experiment: treatment: 3x3 mg/kg and 3x1 mg/kg po divided doses in infected mice; assay type: in vivo, Plasmodium berghei; details: 3 × 3 mg/kg; survival to day 30 post-infection = cure; cured/treated mice
# Protocol: Moro NMRI male mice (Fü Albino specific pathogen free) weighing 18±2 g were infected intravenously (i.v.) with 2×10^7 P. berghei ANKA strain-infected erythrocytes from donor mice on day 0 of the experiment. From donor mice with circa 30% parasitemia, heparinized blood was taken and diluted in physiological saline to 10^8 parasitized erythrocytes per ml. An aliquot (0.2 ml) of this suspension was injected i.v. into experimental and control groups of mice. In untreated control mice, parasitemia rose regularly to 40 to 50% by day 3 post-infection and 70 to 80% by day 4 post-infection. The mice died between days 5 and 7 post-infection. Throughout the experiments, mice were kept in groups of three or five animals in Makrolon type II cages in an air-conditioned animal room at 22 to 23° C. A diet with p-aminobenzoic acid (PABA) of 45 mg (NAFAG FUTTER© food N^o 9009 PAB-45) per kg of body weight, and tap water is available ad libitum.
# OZ compounds were prepared at an appropriate concentration, either as a solution or a suspension containing SSV (0.5% w/v CMC, 0.5% v/v benzyl alcohol, 0.4% v/v Tween 80, and 0.9% w/v sodium chloride in water). They were administered per os (p.o.) in a total volume of 0.01 ml per gram of mouse. The activity of the compound was determined by a variety of methods outlined in subsequent sections. Survival time was also recorded, and survival to day 30 post-infection was considered to be a cure.
# The second experiment consists of administration of divided 3×3 mg/kg and 3×1 mg/kg po doses administered on days 1, 2, and 3 post-infection. On day 4 post-infection, blood smears of all animals were prepared and stained with Giemsa. Parasitemia was determined microscopically, and the difference between the mean value of the control group (taken as 100%) and those of the experimental groups was calculated and expressed as percent reduction. Compounds were administered orally in the SSV vehicle.
SMILES,Cures (P. berghei ANKA strain [1]),Cures (P. berghei ANKA strain [2])
CS(=O)(=O)O.NCC1CCC2(CC1)OOC1(O2)C2CC3CC(C2)CC1C3 (stereo not shown) [compound 209],3\3,0\5
CS(=O)(=O)O.NCC(=O)NCC1CCC2(CC1)OOC1(O2)C2CC3CC(C2)CC1C3 (stereo not shown) [compound 271],4\5,0\5
CC(C)(N)C(=O)NCC1CCC2(CC1)OOC1(O2)C2CC3CC(C2)CC1C3 (stereo not shown) [compound 281],–,0\5
CS(=O)(=O)O.c1cc(OCC2CCC3(CC2)OOC2(O3)C3CC4CC(C3)CC2C4)ccn1 (stereo not shown) [compound 301],5\5,1\5

# From patent publication US6906205B2, “Spiro and dispiro 1,2,4-trioxolane antimalarials” (Medicines for Malaria Venture MMV, priority 2002, dated 2005)
